This note sets out measurements from publication PMC3184960.

Chains of the proteins cited; added tags and fusions are not shown.
UniProt P03372: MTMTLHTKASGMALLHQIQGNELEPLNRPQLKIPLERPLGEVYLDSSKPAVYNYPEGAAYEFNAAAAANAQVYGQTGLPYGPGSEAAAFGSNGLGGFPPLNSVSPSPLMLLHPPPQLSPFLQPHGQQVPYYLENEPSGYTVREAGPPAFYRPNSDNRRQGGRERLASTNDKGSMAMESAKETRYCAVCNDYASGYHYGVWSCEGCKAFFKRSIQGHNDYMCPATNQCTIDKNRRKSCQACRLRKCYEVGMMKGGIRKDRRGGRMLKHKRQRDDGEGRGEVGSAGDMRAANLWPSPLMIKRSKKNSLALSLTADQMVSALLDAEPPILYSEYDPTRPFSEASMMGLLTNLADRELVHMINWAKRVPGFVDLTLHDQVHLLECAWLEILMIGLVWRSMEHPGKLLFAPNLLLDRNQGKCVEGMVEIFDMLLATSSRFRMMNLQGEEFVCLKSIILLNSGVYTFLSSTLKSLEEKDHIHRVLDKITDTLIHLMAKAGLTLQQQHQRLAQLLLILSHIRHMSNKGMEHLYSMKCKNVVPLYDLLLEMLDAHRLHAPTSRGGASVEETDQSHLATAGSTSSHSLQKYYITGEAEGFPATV
UniProt P19785: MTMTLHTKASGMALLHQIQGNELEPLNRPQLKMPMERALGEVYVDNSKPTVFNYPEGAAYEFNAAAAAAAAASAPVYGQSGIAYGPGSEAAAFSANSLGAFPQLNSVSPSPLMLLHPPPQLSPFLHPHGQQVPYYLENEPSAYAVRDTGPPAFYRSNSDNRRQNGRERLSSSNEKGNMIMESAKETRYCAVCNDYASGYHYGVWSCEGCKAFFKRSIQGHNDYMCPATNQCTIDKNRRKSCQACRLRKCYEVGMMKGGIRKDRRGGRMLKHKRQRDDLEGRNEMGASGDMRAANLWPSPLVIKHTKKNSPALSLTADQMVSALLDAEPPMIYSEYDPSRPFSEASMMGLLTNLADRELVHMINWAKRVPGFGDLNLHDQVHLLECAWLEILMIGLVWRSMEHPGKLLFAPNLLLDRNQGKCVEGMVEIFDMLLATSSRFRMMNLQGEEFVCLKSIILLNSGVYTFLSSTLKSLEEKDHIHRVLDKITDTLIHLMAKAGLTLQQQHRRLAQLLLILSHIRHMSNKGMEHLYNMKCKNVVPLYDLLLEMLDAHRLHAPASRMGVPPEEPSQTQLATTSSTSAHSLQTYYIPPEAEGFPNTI

These are yes or no findings as the source states them, for the method shown. Binding seen in cells or lysates may run through a third protein. Some results given as binding are weak or reduced against the parent protein; the word gives no strength.

For assay [1], the target named is T1, XAP2, in vitro translated from XAP2-pSG5 (human) (UniProt O00170).
T1 sequence (chain, 35S-Methionine (radioactively labeled)): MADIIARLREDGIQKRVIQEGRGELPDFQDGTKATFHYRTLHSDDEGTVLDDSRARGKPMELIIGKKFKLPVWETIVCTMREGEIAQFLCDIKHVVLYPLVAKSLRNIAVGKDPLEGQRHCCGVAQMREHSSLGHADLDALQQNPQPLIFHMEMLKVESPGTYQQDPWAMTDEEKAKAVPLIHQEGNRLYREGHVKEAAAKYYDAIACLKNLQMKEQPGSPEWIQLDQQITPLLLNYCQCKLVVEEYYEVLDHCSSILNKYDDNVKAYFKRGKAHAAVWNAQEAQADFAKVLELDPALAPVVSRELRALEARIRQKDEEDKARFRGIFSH
Put plainly: co-IP; 35S-labelled XAP2 and ERα made in rabbit reticulocyte lysate, mixed in equal amounts, 60 min on ice; precipitated with XAP2 antibody (or rabbit IgG) and Sepharose A/G; SDS-PAGE.

Assay [2] deals with T2, Hepatitis B virus X protein associated protein 2 (XAP2), endogenous in HC11 cells (mouse (endogenous in HC11)) (UniProt O08915).
T2 sequence: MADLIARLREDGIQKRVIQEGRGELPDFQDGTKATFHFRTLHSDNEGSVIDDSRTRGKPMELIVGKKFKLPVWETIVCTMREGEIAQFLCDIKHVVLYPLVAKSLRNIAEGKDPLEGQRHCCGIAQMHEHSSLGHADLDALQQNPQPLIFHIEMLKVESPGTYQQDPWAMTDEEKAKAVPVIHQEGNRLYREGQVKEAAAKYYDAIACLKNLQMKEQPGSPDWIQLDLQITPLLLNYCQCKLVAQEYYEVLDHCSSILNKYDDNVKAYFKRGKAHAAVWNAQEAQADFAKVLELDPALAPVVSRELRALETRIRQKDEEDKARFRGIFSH
Put plainly: co-IP; HC11 whole cell extract (0.4 M KCl, 20 mM Hepes pH 7.4), cells treated with DMSO or 10 nM E2 for 1 h; 200 µg protein with 10 mM Na2MoO4 and anti-ARA9 (XAP2) antibody at 4°C, protein-G-Sepharose; blot for ERα.

On to “ERα, in vitro translated from ERα-pSG5 (from UniProt P03372 1-595) (receptor)”, for which, in assay [1], the binding entry is listed as “binds”.

As to “Estrogen receptor α (ERα), endogenous in HC11 cells (from UniProt P19785 1-599)”, in assay [2], the binding entry is given as “binds”.
